Patent publication US20150093336A1 (VIB VZW, published 2015)
No constants are given. Whether binding was seen depends on the method and setting.

What was measured:
[1] = molecular target: T1, Human macrophage mannose receptor (MMR) expressed on human immature monocyte-derived dendritic cells (human) (UniProt P22897); assay: flow cytometry on CD11c+ human immature dendritic cells, anti-HA detection
T1 sequence: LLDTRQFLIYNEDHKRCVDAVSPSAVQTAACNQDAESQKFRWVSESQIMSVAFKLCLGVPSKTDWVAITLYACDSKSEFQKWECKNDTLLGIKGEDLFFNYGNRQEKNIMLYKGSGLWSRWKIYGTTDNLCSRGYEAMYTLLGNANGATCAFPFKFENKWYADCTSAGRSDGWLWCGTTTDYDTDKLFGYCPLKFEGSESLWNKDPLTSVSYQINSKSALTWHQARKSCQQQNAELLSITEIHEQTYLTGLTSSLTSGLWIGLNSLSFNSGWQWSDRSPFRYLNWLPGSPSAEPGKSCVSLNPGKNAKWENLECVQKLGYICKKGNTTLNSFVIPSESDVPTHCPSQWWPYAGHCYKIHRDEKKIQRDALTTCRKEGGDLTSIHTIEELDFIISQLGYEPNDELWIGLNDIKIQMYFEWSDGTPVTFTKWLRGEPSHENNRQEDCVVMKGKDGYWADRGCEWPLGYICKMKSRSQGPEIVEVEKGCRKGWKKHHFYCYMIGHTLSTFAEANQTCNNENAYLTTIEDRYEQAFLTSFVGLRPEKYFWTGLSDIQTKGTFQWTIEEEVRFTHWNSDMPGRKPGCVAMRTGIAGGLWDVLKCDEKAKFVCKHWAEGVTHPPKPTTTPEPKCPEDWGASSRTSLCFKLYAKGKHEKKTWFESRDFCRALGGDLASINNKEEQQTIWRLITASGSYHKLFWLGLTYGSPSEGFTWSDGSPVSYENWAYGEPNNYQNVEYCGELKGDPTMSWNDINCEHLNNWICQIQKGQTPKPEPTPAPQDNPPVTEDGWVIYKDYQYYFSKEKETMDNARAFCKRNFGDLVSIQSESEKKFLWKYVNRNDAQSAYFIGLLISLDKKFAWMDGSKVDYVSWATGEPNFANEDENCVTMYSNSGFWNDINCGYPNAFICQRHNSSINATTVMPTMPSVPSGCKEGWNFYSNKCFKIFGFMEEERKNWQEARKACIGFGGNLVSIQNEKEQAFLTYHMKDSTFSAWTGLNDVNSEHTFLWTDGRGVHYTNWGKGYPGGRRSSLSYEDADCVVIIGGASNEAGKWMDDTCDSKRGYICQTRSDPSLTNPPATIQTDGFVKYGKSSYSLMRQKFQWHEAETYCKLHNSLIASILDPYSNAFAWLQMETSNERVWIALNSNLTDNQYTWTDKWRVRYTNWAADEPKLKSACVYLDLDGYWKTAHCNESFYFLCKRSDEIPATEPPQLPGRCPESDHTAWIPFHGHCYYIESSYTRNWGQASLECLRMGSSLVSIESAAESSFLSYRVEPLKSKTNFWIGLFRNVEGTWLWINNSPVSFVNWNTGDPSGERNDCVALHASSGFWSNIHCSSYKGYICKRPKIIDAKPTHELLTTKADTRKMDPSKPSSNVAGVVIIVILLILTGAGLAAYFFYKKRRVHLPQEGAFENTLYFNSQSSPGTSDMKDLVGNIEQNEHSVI

[2] = molecular target: T1, Human macrophage mannose receptor (MMR) expressed on human immature monocyte-derived dendritic cells (human); assay: condition: 10 µg/ml (from paragraph 134; no concentration on the sheet); flow cytometry on CD11c+ human immature monocyte-derived dendritic cells, HA-tagged Nb detected with Alexa Fluor 488 anti-HA

binding [1]: no binding (tested: 10 ug/ml) | binding [2]: no binding
B1: anti-mouse MMR sdAb clone 1 (VHH)
VHH: QVQLQESGGGLVQPGGSLRLSCAASGNIFSINAIGWYRQAPGKQRELVATITLSGSTNYADSVKGRFSISRDNAKNTVYLQMNSLKPEDTAVYYCNANTYSDSDVYGYWGQGTQVTVSS
notes: also called anti-mMMR Nb clone 1; anti-mouse MMR clone 1
